Laboratory results published in PMC5352758, “Methods for 20S Immunoproteasome and 20S Constitutive Proteasome Determination Based on SPRI Biosensors” (Cellular and Molecular Bioengineering, 2017).

System: 20Sc
Test: Indirect 20Sc determination on PSI-based SPRI biosensor with 20Si blocked by inhibitor
Format: binding, mammalian
Conditions: for Found 20Sc: compound as blocking solution for 20Si (15 μg mL−1), 20Si 2.8 μg mL−1, ratio 20Sc vs. 20Si 1:1, added 20Sc 2.80 μg mL−1, 95% confidence limits, 12 measurements; for Recovery: compound as blocking solution for 20Si, ratio 20Sc vs. 20Si 1:1, added 20Sc 2.80 μg mL−1

SMILES: CCCC[C@H](NC(=O)[C@H](CC(C)C)NC(=O)[C@@H](N)Cc1ccccc1)C(=O)O [compound 11, H-Phe-Leu-nLeu-OH] (H-Phe-Leu-[Nle]-OH)
- Found 20Sc: 2.60 ± 0.53 µg/mL
- Recovery: 93%

SMILES: COc1ccc(C[C@H](NC(=O)[C@H](C)NC(=O)CN2CCOCC2)C(=O)N[C@@H](Cc2ccccc2)C(=O)[C@]2(C)CO2)cc1 [ONX 0914, reference compound]
- Found 20Sc: 2.55 ± 0.54 µg/mL
- Recovery: 91%

SMILES: CC(C)C[C@H](NC(=O)[C@H](Cc1ccccc1)NC(=O)[C@@H](N)CC(C)C)C(=O)O [compound 10, H-Leu-Phe-Leu-OH] (H-Leu-Phe-Leu-OH)
- Found 20Sc: 2.69 ± 0.33 µg/mL
- Recovery: 96%

SMILES: CC(C)C[C@H](NC(=O)[C@H](CC(C)C)NC(=O)[C@@H](N)Cc1ccccc1)C(=O)O [compound 5, H-Phe-Leu–Leu-OH] (H-Phe-Leu-Leu-OH)
- Found 20Sc: 2.93 ± 0.36 µg/mL
- Recovery: 105%

SMILES: CC(C)C[C@H](NC(=O)[C@@H](N)CC(C)C)C(=O)N[C@@H](Cc1ccccc1)C(=O)O [compound 8, H-Leu-Leu-Phe-OH] (H-Leu-Leu-Phe-OH)
- Found 20Sc: 2.60 ± 0.35 µg/mL
- Recovery: 93%

Where a SMILES comes first, the peptide text is derived from it. [ ]: non-standard residue; d: D form. Nle = CCCC[C@H](N)C(=O)O
